Results as given in patent US20220169672A1, “COMPOUNDS FOR TARGETED THERAPIES OF CASTRATION RESISTANT PROSTATE CANCER” (Purdue Research Foundation, priority 2019, published 2022).
Some results were stated once for a whole list of compounds, not compound by compound. At least one structure is not confirmed: it was looked up by name or label, or the drawing left a doubt.

Tested on: C4-2 cells
Assay: Cell proliferation / growth inhibition in CRPC C4-2 cells
Type: cell-based, human
Procedure: To identify initial lead(s), we first tested all ten drugs in vitro in human prostate cancer LNCaP and CRPC C4-2 cells to see their growth inhibition effect.
We assessed anti-cancer activity of the synthetic molecules in prostate cancer cell lines as well as toxicity of the active molecules in normal human cell line.
The LNCaP, C4-2 & RWPE-1 cell lines were provided by Professor Timothy Ratliff (Purdue University Center for Cancer Research, USA). All these cells were and maintained at 37° C. with 5% CO2 atmosphere in a humidified incubator following American Type Culture Collection (ATCC) protocol. LNCaP cells were grown in RPMI-1640 (Gibco) supplemented with 10% FBS (Atlanta Biologics), 20 mM HEPES and 1% penicillin/streptomycin (Invitrogen). C4-2 cells were grown in 4:1 DMEM/F12-K medium (Gibco) supplemented with 10% FBS (Atlanta Biologics), 1% penicillin/streptomycin (Invitrogen), 3 mg/mL sodium bicarbonate, 5 μg/mL insulin, 1.36 ng/mL triiodothyronine, 5 μg/mL transferrin, 0.25 μg/mL biotin and 25 μg/mL adenine. For normal growth, RWPE-1 cells were maintained in Keratinocyte Serum Free Medium (K-SFM) (Invitrogen) supplemented with 0.05 mg/mL bovine pituitary extract (BPE) and 5 ng/mL epidermal growth factor (EGF). […] For experiments, cells were used from 3 to 12 passages from thawing.
The cell proliferation experiment was carried out by the ‘Cell Titer-Blue Cell Viability Assay,’ In this assay, approximately 5,000 cells/well were seeded in 100 μL growth media in poly-L-lysine coated 96-well plates. Next day, the cells were treated with additional 100 μL of various concentrations of the test compounds or DMSO-growth media as untreated control for 6 days in a humidified incubator at 37° C. and 5% CO2 atmosphere. 10 μL ‘Cell Titer-Blue Reagent’ was added directly to each well after 6 days and the plates were incubated for 3 h at 37° C. to allow cells to convert resazurin to resorufin, and the fluorescent signal was measured at 590 nm using a multiplate ELISA reader (Bio-Tek Synergy HT plate reader, Bio-Tek, Winooski, Vt.). The percentage of viable cells in a compound-treated sample was calculated by considering the absorbance of the DMSO-growth media treated sample as 100%. Data was analysed and IC50 value was calculated using GraphPad Prism Software. All experimental points were done in triplicate and experiments were repeated at least thrice.

SMILES | IC50 [nM]
C#C[C@@]1(O)CC[C@@H]2[C@H]3[C@@H](CC[C@@]21C)[C@H]1CCC(=NO)C=C1C[C@H]3C [Compound 17] | < 100
CC#C[C@@]1(O)CC[C@@H]2[C@H]3[C@@H](CC[C@@]21C)[C@H]1CCC(=O)C=C1C[C@@H]3C [Compound 14] | < 100
C#CC1CC[C@@H]2C3CCC4=CC(=O)CC[C@]4(C)[C@@H]3CC[C@]12C (stereo partly drawn) [Compound 16] | < 100
C#C[C@@]1(OCCO)CC[C@@H]2[C@H]3[C@@H](CC[C@@]21C)[C@H]1CCC(=O)C=C1C[C@@H]3C [Compound 11] | < 100
C[C@]12CC[C@@H]3[C@@H](CCC4=CC(=O)CC[C@@H]43)[C@H]1CC[C@H]2O [Compound 21] | < 100
C#C[C@]1(O)CC[C@H]2[C@@H]3CCC4=CC(=NO)CC[C@@H]4[C@H]3CC[C@@]21C [Compound 4] | < 100
C#C[C@@]1(O)CC[C@@H]2[C@@H]3CCC4=CC(=NO)CC[C@@H]4[C@@H]3CC[C@@]21C [Compound 18] | < 100
C[C@H]1CC2=CC(=O)CC[C@@H]2[C@@H]2CC[C@]3(C)[C@H](O)CC[C@@H]3[C@@H]21 [Compound 12] | < 100
C[C@H]1CC2=CC(=O)CC[C@@H]2[C@@H]2CC[C@@]3(C)[C@H](CC[C@]3(O)C#Cc3ccncc3)[C@@H]21 [Compound 19] | < 100
